Assay results published in PMC12135372.

Key:
[1] = target: T1, Danio rerio CGI99 (subunit of Dr-tRNA-LC, FL and TR forms) (Danio rerio) (UniProt Q7ZUH1); test: cryo-EM structure; Dr-tRNA-LC-TR at 0.95 mg/ml with 2 mM MnCl2, 2 mM GTP and twofold molar excess of tRNAIle (RNA not seen in the map); 3.3 Å reconstruction, atomic model built; both purified
T1 sequence: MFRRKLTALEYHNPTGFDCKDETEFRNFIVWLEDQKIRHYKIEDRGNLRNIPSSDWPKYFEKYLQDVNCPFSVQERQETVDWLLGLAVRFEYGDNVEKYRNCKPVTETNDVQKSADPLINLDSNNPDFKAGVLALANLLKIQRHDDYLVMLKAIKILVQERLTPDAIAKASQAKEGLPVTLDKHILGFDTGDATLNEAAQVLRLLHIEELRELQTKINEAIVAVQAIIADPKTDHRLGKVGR

[2] = target: T2, Danio rerio DDX1, full length, His6-MBP fusion (subunit of Dr-tRNA-LC-FL) (Danio rerio) (UniProt F1R2L8); test: co-expression and co-purification (Ni affinity chromatography, then gel filtration); all five subunits co-expressed in Sf9 cells; complex captured on a HisTrap column via His6-MBP-DDX1, tag removed with TEV, Superose 6 Increase gel filtration; 25 mM Hepes pH 7.5, 150 mM NaCl, 5% glycerol
T2 sequence: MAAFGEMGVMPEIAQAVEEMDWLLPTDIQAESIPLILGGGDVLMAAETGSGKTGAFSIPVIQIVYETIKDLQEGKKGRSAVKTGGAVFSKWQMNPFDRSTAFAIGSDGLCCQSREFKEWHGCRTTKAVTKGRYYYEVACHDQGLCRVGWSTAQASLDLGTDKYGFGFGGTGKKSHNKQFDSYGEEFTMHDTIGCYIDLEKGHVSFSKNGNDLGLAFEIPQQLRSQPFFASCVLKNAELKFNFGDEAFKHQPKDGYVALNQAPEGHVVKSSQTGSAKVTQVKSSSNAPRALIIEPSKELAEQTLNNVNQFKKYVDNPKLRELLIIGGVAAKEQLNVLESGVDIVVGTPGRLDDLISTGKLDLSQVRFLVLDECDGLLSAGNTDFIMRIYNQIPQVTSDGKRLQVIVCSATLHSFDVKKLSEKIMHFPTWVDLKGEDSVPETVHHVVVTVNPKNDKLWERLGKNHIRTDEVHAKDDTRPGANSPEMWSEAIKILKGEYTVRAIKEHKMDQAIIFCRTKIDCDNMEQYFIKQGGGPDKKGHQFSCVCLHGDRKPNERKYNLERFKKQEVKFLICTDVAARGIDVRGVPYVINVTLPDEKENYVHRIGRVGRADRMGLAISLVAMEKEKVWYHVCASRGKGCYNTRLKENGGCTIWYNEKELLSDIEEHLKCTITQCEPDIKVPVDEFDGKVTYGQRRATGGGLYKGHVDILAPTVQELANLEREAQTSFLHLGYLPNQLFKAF

Substance | binding [1] | binding [2]
Danio rerio ASHWIN N-terminal part, residues 1-83 (subunit of Dr-tRNA-LC-TR) (domain or fragment) | binds | 
Danio rerio ASHWIN, full length (subunit of Dr-tRNA-LC-FL) |  | binds

Results are given in words; binding and its absence hold for the method and conditions named. Binding can be weak; no strength is given. For some assays here: Binding seen in cells or lysates may run through a third protein. For some assays here: Where a sequence is shown, tags or fusion partners need not be part of it.
